Patent US20220387317A1, “METHODS AND COMPOSITIONS RELATING TO SELECTIVE INTRACELLULAR DELIVERY OF CD38 INHIBITORS” (Ohio State Innovation Foundation, priority 2019, published 2022)
“Also recorded” adds a separate entry of the source. For at least one compound, name, drawing or mass did not settle the structure.

Tests used:
Assay type in all cases: cell-based
primary rat HSCs = test: Hypoxia followed by oxidant stress (H2O2) in primary rat HSCs with CD38 inhibition
rat hepatocytes = test: Hypoxia reoxygenation, cell viability by MTT, rat hepatocytes; settings: hypoxia (1.1% O2) 3 hours, then 3 hours normoxic; 1-50 μM; vs nontreated controls; FIG. 19A, 19B
[1] = test system: rat sinusoidal endothelial cells; test: Hypoxia reoxygenation, cell viability, rat sinusoidal endothelial cells; settings: vs nontreated controls, FIG. 19D
Kupffer cells = test: Hypoxia reoxygenation, cell viability, Kupffer cells; settings: vs nontreated controls, FIG. 19E, 19F

| SMILES | cellular health in response to oxidative stress injury (primary rat HSCs; H2O2-induced oxidative stress injury, FIGS. 13A and 13C) | viability (primary rat HSCs; primary rat HSCs, 3 h hypoxia followed by oxidant stress (H2O2), Kuromanin 1-20 μM, FIG. 13A) | intracellular ROS formation (primary rat HSCs; primary rat HSCs, 3 h hypoxia followed by oxidant stress (H2O2), Kuromanin 1-20 μM, FIG. 13B) | ET-1 release (primary rat HSCs; primary rat HSCs, 3 h hypoxia followed by oxidant stress (H2O2), at 20 μM Kuromanin, FIG. 13C) | cell viability (rat hepatocytes) | cell viability [1] | cell viability (Kupffer cells) |
| --- | --- | --- | --- | --- | --- | --- | --- |
| OC[C@H]1O[C@@H](Oc2cc3c(O)cc(O)cc3[o+]c2-c2ccc(O)c(O)c2)[C@H](O)[C@@H](O)[C@@H]1O [Kuromanin] | improved cellular health | increased viability | decreased ROS production; also recorded: decreased intracellular ROS formation | decreased ET-1 release | – | – | – |
| Oc1cc(O)c2ccc(-c3ccc(O)c(O)c3)[o+]c2c1 [luteolinidin] | – | – | – | – | increased | increased | increased |
